Data as given in PubChem BioAssay AID652259 (Drosophila RNAi Screening Center, 2013)
In all, the deposit lists about 22,000 reagents; below is an unselected part of those that have a named target and a result. In the full data, 233 (1.1%) were called active. 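Light values are raw, unnormalised plate reads; the ratio scores behind the reporter calls were not deposited.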 Entries without a mark were called inactive. The record does not give: the amount of reagent, the time to read-out, the dose of the treatment.

- Screen: 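Identify new Wingless signalling regulators in fly cells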 (primary screen)
- Cells: Drosophila clone 8 imaginal disc epithelial cells
- Reagent: long dsRNA against Drosophila genes
- Conditions: pathway stimulated by co-transfected Wingless expression plasmid
- Detection: 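Firefly luciferase from a tcf-site Wingless reporter, measured alongside co-transfected Renilla luciferase that tracks transfection; pathway stimulated by a Wingless plasmid; the firefly-to-Renilla ratio is not deposited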
- Direction: firefly reporter light: higher = more Wg reporter light, before normalisation; Renilla control light: higher = more transfected or surviving cells
- Hit rule: 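a knock-down is a candidate when at least two out of four statistical tests show it departing from its plate mean; one test alone signals a weak candidate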
- Calls: active = candidate regulator (raises or lowers reporter); inactive = not a candidate

no.	target gene	PubChem SID	firefly reporter light, replicate 1	firefly reporter light, replicate 2	Renilla control light, replicate 1	Renilla control light, replicate 2
1	SAK (Sak kinase)	SID104191671	14134		5312	
2	Tret1-2 (Trehalose transporter 1-2)	SID104186909	9221		3712	
3	Mid1	SID104184022	2849	8144	960	2258
4	Mid1	SID104184023	3664	10380	1201	3536
5	Mid1	SID104184100	3137	7752	972	2833
6	Mid1	SID104202134	5.90e5	6.11e5	2.36e5	2.03e5
7	Mid1	SID104202162	3.60e5	4.03e5	1.86e5	2.13e5
8	Top1 (Topoisomerase 1)	SID104200087	16309		7328	
9	Adgf-E (Adenosine deaminase-related growth factor E)	SID104185765	7400		2839	
10	armi (armitage)	SID104187985	7664		3203	
11	mtsh (mitoshell)	SID104182862	4135	6549	1056	2850
12	CG32407	SID104189581	1607	6544	1111	2919
13	Usp7 (Ubiquitin-specific protease 7)	SID104198701	4450		1808	
14	Usp7 (Ubiquitin-specific protease 7)	SID104199396	24811		11538	

Continued (2 carried over from the part before).
no.	target gene	PubChem SID	firefly reporter light, replicate 1	firefly reporter light, replicate 2	Renilla control light, replicate 1	Renilla control light, replicate 2
13	Usp7 (Ubiquitin-specific protease 7)	SID104198701	4450		1808	
14	Usp7 (Ubiquitin-specific protease 7)	SID104199396	24811		11538	
15	Son (Son RNA binding protein)	SID104196192	9073		2131	
16	isoQC (iso Glutaminyl cyclase)	SID104191582	8433		2796	
17	Ir52d (Ionotropic receptor 52d)	SID104186056	5216		2225	
18	CR13656 (pseudo)	SID104193497	5629		1425	
19	CR13656 (pseudo)	SID104194448	19387		15323	
20	TbCMF46	SID104182013	2269	7531	809	2298
21	CG13077	SID104181973	3708	4712	912	1973
22	Nmdar2 (NMDA receptor 2)	SID104197975	26082		16981	
23	Nmdar2 (NMDA receptor 2)	SID104198303	28320		18913	
24	Nmdar2 (NMDA receptor 2)	SID104198361	22997		16683	
25	CG42673	SID104188781	2164		1194	
26	CG42673	SID104188783	3869		409	
27	CG42673	SID104189969	8298		2299	
28	CG42673	SID104190056	4924		2659	
29	CG42673	SID104190145	10291		4880	
30	CG42673	SID104190146	8923		4103	
